# Reference: PubChem BioAssay AID504804 (Drosophila RNAi Screening Center, 2011)
# Screen: 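Knock-downs shielding fly cells from apoptosis caused by DNA damage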 (primary screen)
# Cells: Drosophila Kc cells
# Reagent: long dsRNA against Drosophila genes, 0.5 µg dsRNA per well
# Time to read-out: 96 h (48 h knock-down, then 48 h drug)
# Challenge: doxorubicin 5 µg/ml for 48 h, added 48 h after dsRNA
# Detection: 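Viability measured as cellular ATP by luminescence after 48 h knock-down then 48 h doxorubicin at 5 µg/ml; unnormalised plate counts for each replicate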
# Scale: raw ATP luminescence: higher = more viable cells, protection from doxorubicin
# Call rule: 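Active when both duplicate wells lie at least 2 SD above the plate mean and protection is confirmed by rescreening and independent dsRNAs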
# The deposit covers about 19,000 reagents; shown is an unselected part of those that have a named target and a result. Of all reagents, 47 (0.25%) got an active call. 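Signals are raw, not normalised; exact z-scores behind calls not deposited; actives needed confirmation, so some wells reaching 2 SD are inactive.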 A number with no mark means an inactive call. Reagents against one gene are numbered here. A plus sign joins genes that one reagent is predicted to hit. No sequences are given here.
target,reagent,SD above plate mean,"raw ATP luminescence, replicate 1","raw ATP luminescence, replicate 2"
Ncoa6 (Nuclear receptor coactivator 6),1,,16153,12367
Kah (Kahuli),1,,1.72e5,1.47e5
CG15916,1,,3.87e5,3.12e5
MED26 (Mediator complex subunit 26),1,,1.79e5,1.71e5
MED26 (Mediator complex subunit 26),2,,37750,41680
CG32606 (retired record),1,,28550,28257
CG32606 (retired record),2,,3.40e5,3.37e5
CG32606 (retired record),3,,3.08e5,2.54e5
CG32606 (retired record),4,,3.39e5,3.27e5
CG4660,1,,60870,50290
Bace (beta-site APP-cleaving enzyme),1,,90837,91547
rb (ruby),1,,49800,51940
dan (distal antenna),1,,33487,33363
CG13614,1,,62700,62220
JIL-1 (JIL-1 kinase),1,,44563,34530
ACOX1 (acyl-CoA oxidase 1),1,,55097,65187
Cpr65Ay (Cuticular protein 65Ay),1,,1.34e5,1.10e5
ranshi,1,,57757,75707
tsg (twisted gastrulation),1,,3.54e5,3.04e5
dpr10 (defective proboscis extension response 10),1,,1.61e5,1.61e5
dpr10 (defective proboscis extension response 10),2,,1.69e5,1.62e5
dpr10 (defective proboscis extension response 10),3,,66433,58847
dpr10 (defective proboscis extension response 10),4,,60733,72923
CG15260,1,,72770,70087
Aplip1 (APPL-interacting protein 1),1,,1.13e5,97093
Ilp2 (Insulin-like peptide 2),1,,39683,38870
Exd2 (Exonuclease 3'-5' domain-containing 2),1,,59727,51080
CG13937,1,,1.97e5,1.97e5
Ccp84Ac,1,,54987,60997
Larp7 (La related protein 7),1,,2.88e5,2.44e5
CG17177,1,,59830,48100
sit (stuck in traffic),1,,73730,69520
CREG (Cellular Repressor of E1A-stimulated Genes),1,,59310,76970
CG14109,1,,73510,68633
ND-B14.5A (NADH dehydrogenase (ubiquinone) B14.5 A subunit),1,,72560,67770

Continued; the last 8 above are carried over.
target,reagent,SD above plate mean,"raw ATP luminescence, replicate 1","raw ATP luminescence, replicate 2"
CG13937,1,,1.97e5,1.97e5
Ccp84Ac,1,,54987,60997
Larp7 (La related protein 7),1,,2.88e5,2.44e5
CG17177,1,,59830,48100
sit (stuck in traffic),1,,73730,69520
CREG (Cellular Repressor of E1A-stimulated Genes),1,,59310,76970
CG14109,1,,73510,68633
ND-B14.5A (NADH dehydrogenase (ubiquinone) B14.5 A subunit),1,,72560,67770
mRpL19 (mitochondrial ribosomal protein L19),1,,62283,66123
CG11563,1,,42540,38840
p115,1,,26170,43270
dtr (defective transmitter release),1,,68563,58693
Rsph1 (Radial spoke head protein 1),1,,83850,79510
CG15011,1,,32423,37113
Glt (Glutactin),1,,1.00e5,71513
AIMP3 (aaRS-interacting multifunctional protein 3),1,,46183,53347
CG17637,1,,72313,70890
CG2202,1,at least 2 SD above plate mean,2.02e5,2.25e5
CG13375,1,,54050,41670
Alp8 (Alkaline phosphatase 8),1,,77600,42643
mRpS29 (mitochondrial ribosomal protein S29),1,,66177,66743
CG33630,1,,58240,49113
ND-49 (NADH dehydrogenase (ubiquinone) 49 kDa subunit),1,,36660,30490
CG18231,1,,76483,53117
Ankle2,1,,3.03e5,3.32e5
RpL19 (Ribosomal protein L19),1,,31420,27603
mus301 (mutagen-sensitive 301),1,,68623,70997
H15,1,,27043,28930
Dgat2 (Diacylglycerol O-acyltransferase 2),1,,46710,50900
CG2076,1,,2.80e5,2.90e5
Spt20,1,,36930,37227
nop5,1,,25093,28070
CG17145,1,,55690,66437
CG16772,1,,46823,50900
Nrg (Neuroglian),1,,1.97e5,1.83e5
mod(mdg4) + pre-mod(mdg4)-U,1,,2.07e5,2.20e5
CG17110,1,,79550,72840
CG15537,1,,34550,42850
CG1603,1,,69627,51777
klg (klingon),1,,3.11e5,2.63e5
klg (klingon),2,,50440,60570
CG7518,1,,61910,26477
CG10353,1,,3.01e5,3.17e5
asf1 (anti-silencing factor 1),1,,22337,23773
AOX1 (Aldehyde oxidase 1),1,,39957,25473
Cfp1 (CXXC finger protein 1),1,,3.33e5,2.81e5
ush (u-shaped),1,,1.04e5,87177
eag (ether a go-go),1,,2.71e5,2.56e5
eag (ether a go-go),2,,4.07e5,3.06e5
Mics1 (Mitochondrial morphology and cristae structure 1),1,,60293,50077
CG18011,1,,55537,59027
CG18011,2,,36880,1.01e5
Or46a (Odorant receptor 46a),1,,32273,68860
Or46a (Odorant receptor 46a),2,,28667,65693
nord,1,,59233,49617
nord,2,,47620,54350
DIP-beta (Dpr-interacting protein beta),1,,2.19e5,1.89e5
DIP-beta (Dpr-interacting protein beta),2,,3.42e5,2.77e5
DIP-beta (Dpr-interacting protein beta),3,,3.42e5,3.40e5
DIP-beta (Dpr-interacting protein beta),4,,3.78e5,2.81e5
Sec24AB (Secretory 24AB),1,,81270,64903
CG33136,1,,1.80e5,1.62e5
CG14326,1,,50230,43130
vsg (visgun),1,,82423,71767
pes (peste),1,,60603,77923
cyc (cycle),1,,56507,51267
pgc (polar granule component),1,,23583,26953
CG31104,1,,66170,75290
unpg (unplugged),1,,47090,77050
Best3 (Bestrophin 3),1,,64063,50700
BomBc3 (Bomanin Bicipital 3),1,,63510,83600
TP53INP (Tumor protein p53 inducible nuclear protein),1,,39987,47067
CG6726,1,,98560,66630
Chrac-16 (Chromatin accessibility complex 16kD protein),1,,2.61e5,2.32e5
Lkr (Leucokinin receptor),1,,62913,67457
CG9270,1,,55103,51927
Sulf1 (Sulfated),1,,59670,75690
CG6695,1,,52103,56910
eya (eyes absent),1,,1.05e5,75083
CG3600 (retired record),1,,48370,39380
